Measurements from PubChem BioAssay AID1259415 (National Center for Advancing Translational Sciences (NCATS), 2018).
Hit rate of the full screen: of about 410,000 compounds, about 18,000 (4.4%) were called active. Inconclusive results, whose numbers are uncertain, are shown with a selection of clear calls. Rule as the data show it: active = activity change below about -60%; inconclusive = no clear call, values can overlap the other calls; inactive = above about -39%.
% is scaled to controls: 0 for no effect and ±100 for the full control effect.

Experiment: qHTS Assay for inhibitors of the human cytomegalovirus (HCMV)
Conditions: HFF cells, HCMV-luciferase reporter, 72 h; at 57.5 µM; stronger effect = lower value
In short: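 Two compound doses tested in HFFs infected with HCMV-luciferase, MOI 1 PFU/cell, 72 h at 37C. Lysate luminescence read with OneGlo; data normalized against buffer-only and 10uM Salinomycin inhibitor controls.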
With O=[N+]([O-])c1ccc(-c2csc(NN=C3CCCC3)n2)cc1 the activity change, negative = inhibition was inconclusive: -58.5%. For N=C(N)c1ccc(N)cc1, the activity change, negative = inhibition was inconclusive: -42.2%. In the case of O=C(N/N=C/c1cn[nH]c1-c1ccc(Cl)cc1)c1ccc([N+](=O)[O-])cc1, the activity change, negative = inhibition was inconclusive: -44.3%. With Brc1ccc(CSc2nccn2-c2ccccc2)cc1 the activity change, negative = inhibition was active: -73.1%. With Cc1nn(-c2ccccc2)c(C)c1/C=N/NC(=O)CSc1nc2ccccc2c(=O)n1-c1ccccc1 the activity change, negative = inhibition was inconclusive: -45.6%. In the case of CCN(CC)S(=O)(=O)c1ccc(NC(=O)Cn2c(=O)sc3ccccc32)cc1, the activity change, negative = inhibition was inconclusive: -43.8%. For Cc1c(C(=O)N/N=C/c2ccccc2)sc(=S)n1C, the activity change, negative = inhibition was inactive: 0.299%. In the case of COc1ccccc1NC(=S)N1CCCCCC1, the activity change, negative = inhibition was inconclusive: -44.2%. With S=C(NCC1CCCO1)c1ccc(Br)cc1 (stereo unspecified) the activity change, negative = inhibition was inactive: -24.8%. In the case of Cc1cccc(C(=O)N2CCCC(N3CCN(c4ccccc4F)CC3)C2)n1 (stereo unspecified), the activity change, negative = inhibition was inconclusive: -56.8%. For O=C1/C(=C/c2cccc(Br)c2)SC(=S)N1CCC(=O)N(CCO)c1ccccc1, the activity change, negative = inhibition was active: -104%. For CC(C(=O)Nc1cc([N+](=O)[O-])ccc1Cl)N1CCN(c2ccc(O)cc2)CC1 (stereo unspecified), the activity change, negative = inhibition was inconclusive: -45.4%. In the case of CCOC(=O)C1(Cc2ccccc2)CCN(CC2CC=CCC2)CC1 (stereo unspecified), the activity change, negative = inhibition was inconclusive: -41.6%. For COc1cc(-c2nc(SCC(=O)Nc3ccc4c(c3)OCO4)c(-c3ccccc3)[nH]2)cc(OC)c1OC, the activity change, negative = inhibition was inconclusive: -40.3%. With CCCC(=O)Nc1ccccc1NC(=O)c1ccc(OCC)cc1 the activity change, negative = inhibition was inconclusive: -43.2%. In the case of CC(=O)c1ccc(OCc2cc(C(=O)N3CCCCC3c3cccnc3)no2)cc1 (stereo unspecified), the activity change, negative = inhibition was inactive: 5.87%. With Cc1cccc2sc(N(CCCN(C)C)C(=O)CCc3ccccc3)nc12 the activity change, negative = inhibition was active: -71.6%. With CC(C)CC(=O)/C(=C/c1ccc(N(C)C)cc1)n1cncn1 the activity change, negative = inhibition was active: -60.3%. With CCN(CC)S(=O)(=O)c1ccc(NN=c2c(=O)c3ccccc3c2=O)cc1 the activity change, negative = inhibition was inconclusive: -43.8%. In the case of O=C(NNC(=S)Nc1ccccc1Cl)c1ccncc1, the activity change, negative = inhibition was inactive: 52.4%. In the case of Cc1ccccc1NC(=S)N(CCN(C)C)C(C)c1ccco1 (stereo unspecified), the activity change, negative = inhibition was inconclusive: -45.6%. In the case of CCCn1c(N)c(N(CCOC)C(=O)CSc2cc(C)c3ccccc3n2)c(=O)[nH]c1=O, the activity change, negative = inhibition was inactive: 10.4%. In the case of Cc1ccc(C(=O)Cn2nnc3ccccc32)cc1[N+](=O)[O-], the activity change, negative = inhibition was inactive: 20%. In the case of COc1ccc(/C=N/NC(=S)Nc2cccc(C(=O)O)c2)cc1OC, the activity change, negative = inhibition was inactive: -34.2%. In the case of O=C1CCN(Cc2ccccc2)C(=O)N1, the activity change, negative = inhibition was inconclusive: -49.4%. In the case of COc1cccc(CN(C)Cc2cc(=O)oc3c(C)c(C)ccc23)c1, the activity change, negative = inhibition was inconclusive: -56.4%. For CC(=O)N1N=C(c2ccc(C)cc2)OC1c1ccc(Br)cc1 (stereo unspecified), the activity change, negative = inhibition was inactive: 44.9%. For O=C(c1ccc(-c2ccccc2Cl)o1)N1CCN(S(=O)(=O)c2cccs2)CC1, the activity change, negative = inhibition was inactive: 37.4%. With CCOc1cc(NC(=O)CCl)c(OCC)cc1NC(=O)CCl the activity change, negative = inhibition was inconclusive: -57.5%. With Cc1ccc(C(CC(=O)N2CCCC2)c2ccccc2)c(O)c1 (stereo unspecified) the activity change, negative = inhibition was inconclusive: -43.1%. For CNc1cncc(-c2ccc(OC)c(OC)c2)n1, the activity change, negative = inhibition was inconclusive: -45.6%. For Cc1ccc(CNC(=O)CCn2cc(-c3ccc(C)cc3)nc2-c2ccncc2)cc1, the activity change, negative = inhibition was inactive: -9.9%. For O=C(CN1CCNCC1)NCCSc1ccc(Cl)cc1, the activity change, negative = inhibition was inconclusive: -42.1%. With COc1ccc(NC(=O)c2oc3ccccc3c2NC(=O)c2cc(=O)c3cc(Cl)ccc3o2)cc1 the activity change, negative = inhibition was inactive: -20.8%. For COc1ccc(-n2c(=S)[nH]c3cc(C(=O)N4CCN(c5ccccc5)CC4)ccc3c2=O)cc1, the activity change, negative = inhibition was inactive: -28%. In the case of C[C@H](CO)N1C[C@H](C)[C@@H](CN(C)Cc2ccc(-c3ccccc3)cc2)Oc2c(NS(=O)(=O)c3ccccc3)cccc2C1=O, the activity change, negative = inhibition was inconclusive: -44.9%. In the case of c1cncc(N=c2scc(-c3cccc4ccccc34)n2CCCn2ccnc2)c1, the activity change, negative = inhibition was inconclusive: -56.5%. In the case of COc1cccc2c1C(=O)c1c(O)c3c(c(O)c1C2=O)CC(O)(C(C)=NO)CC3OC1CC(N)C(O)C(C)O1 (stereo unspecified), the activity change, negative = inhibition was active: -99.6%. For COc1ccc(O)c(C(=O)c2cc(SCC(=O)O)c3nc4sc5c(c4c(=O)n3c2)CCCC5)c1, the activity change, negative = inhibition was inconclusive: -43.6%. In the case of COc1ccc2sc(-c3ccccc3OC)c(-c3ccc(OCCN(C)C)cc3)c2c1, the activity change, negative = inhibition was inactive: 3.5%. For O=C(/C=C/c1ccccc1)c1cc(Br)ccc(=O)c1O, the activity change, negative = inhibition was active: -107%. In the case of CCCCN(CCCC)C(=S)NC(=O)c1ccccc1Cl, the activity change, negative = inhibition was inactive: -29.3%. With COc1ccc2[nH]c3c(c2c1)CCN(C(=O)CCC1CCCC1)C3c1ccc(F)cc1 (stereo unspecified) the activity change, negative = inhibition was active: -81.8%. With COc1ccc(C(=O)C(CCC(CNC(C)(C)C)C(=O)c2ccc(OC)cc2)CNC(C)(C)C)cc1 (stereo unspecified) the activity change, negative = inhibition was active: -98.2%. For O=C(O)C(Cc1ccccc1)N1CCS(=O)(=O)CC1 (stereo unspecified), the activity change, negative = inhibition was inconclusive: -49.9%. With CCCCC(CC)C(=O)Oc1ccc(O)c(C(C)(C)C)c1 (stereo unspecified) the activity change, negative = inhibition was inconclusive: -48.5%. With CN1C(=O)C(Cc2nc3ccccc3c(=O)n2-c2ccccc2)c2ccccc21 (stereo unspecified) the activity change, negative = inhibition was inactive: -22.6%. In the case of CC(=O)Nc1ccc(NC(=O)c2ccc3c(c2)N(Cc2cccc(Cl)c2)C(=O)c2ccccc2S3=O)cc1 (stereo unspecified), the activity change, negative = inhibition was active: -94.5%. For COc1ccc(CCNCc2csc3nc4ccccc4n23)cc1OC, the activity change, negative = inhibition was inconclusive: -42.9%. For CC(C)c1cc(Cn2c3ccccc3c(=O)n2C(C)Cn2cc(-c3ccc(C(C)(C)C)cc3)nn2)on1 (stereo unspecified), the activity change, negative = inhibition was inactive: -32.9%. In the case of O=c1cc(-c2ccccc2)[nH]c2cc(F)ccc12, the activity change, negative = inhibition was active: -67.4%. For O=C(CCCCn1c(=O)c2ccccc2n(Cc2cccc(F)c2)c1=O)NCCc1ccccc1, the activity change, negative = inhibition was inactive: -21.6%. In the case of Cc1cccc(NC(=O)C2CC(O)CN2C(=O)Oc2ccccc2)c1 (stereo unspecified), the activity change, negative = inhibition was inconclusive: -47.1%. For CCOC(=O)c1c(-c2ccc(C)cc2)csc1/N=C(\C)C1=C(O)c2ccccc2C1=O, the activity change, negative = inhibition was active: -62.8%. In the case of COc1ccc(NC(=O)Nc2cc(-c3cn4cccnc4n3)ccc2C)cc1, the activity change, negative = inhibition was inactive: 11.9%. In the case of O=C(NC1CCN(Cc2ccccc2)CC1)c1ccc(Cn2c(=O)c3ccccc3n(Cc3ccc(Cl)cc3)c2=O)cc1, the activity change, negative = inhibition was inactive: 2.56%.
